These are yes or no findings as the source states them, for the method shown. In cells and extracts the contact can be indirect. A yes stands for co-enrichment or nearness to the bait. Other partners may have been found. Tags and fused reporters may be left off the sequences shown.
Target: T1, FLAG-tagged HAPSTR1 (human) (UniProt Q14CZ0)
T1 sequence: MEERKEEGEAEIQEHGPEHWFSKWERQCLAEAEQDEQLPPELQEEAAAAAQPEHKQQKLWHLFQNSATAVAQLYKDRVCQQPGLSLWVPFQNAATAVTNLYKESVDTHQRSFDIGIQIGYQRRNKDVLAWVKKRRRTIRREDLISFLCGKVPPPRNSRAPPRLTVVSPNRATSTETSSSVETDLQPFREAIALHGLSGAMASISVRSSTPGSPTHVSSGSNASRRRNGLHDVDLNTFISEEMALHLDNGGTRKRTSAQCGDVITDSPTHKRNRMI
Assay: affinity purification with mass spectrometry; SKOV3 cells transfected with FLAG-HAPSTR1; anti-Flag magnetic beads, overnight 4 C, eluted with 3X Flag peptide; SDS-PAGE, Coomassie, Q Exactive MS; proteins found only in the HAPSTR1 flag-OE group

The chains behind the UniProt entries cited, without tags or fusion partners.
UniProt O00487: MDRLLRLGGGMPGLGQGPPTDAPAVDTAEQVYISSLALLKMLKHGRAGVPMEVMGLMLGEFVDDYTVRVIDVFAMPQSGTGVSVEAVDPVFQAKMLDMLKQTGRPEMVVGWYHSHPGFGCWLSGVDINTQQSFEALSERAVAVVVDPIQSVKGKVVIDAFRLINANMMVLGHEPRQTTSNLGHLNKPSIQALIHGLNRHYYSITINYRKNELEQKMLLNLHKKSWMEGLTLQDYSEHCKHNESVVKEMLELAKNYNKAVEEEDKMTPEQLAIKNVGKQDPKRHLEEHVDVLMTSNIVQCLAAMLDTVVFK

In the case of PSMD14 (from UniProt O00487 1-310), the binding is reported as “binds”.

— article PMC11087107
